## Drug screen on melanoma cell lines: apoptosis marker

Data from the primary screen of doi:10.1371/journal.pone.0140310, rounded.

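The test systems are human melanoma cell lines, treated with a pair of drugs for 72 h and then stained and imaged. Values are the share of nuclei positive for cleaved PARP as a percentage of the same share in the DMSO control: 100 is the control level, higher means more apoptosis. Concentrations were fixed for each drug; these are the higher of two levels. These are primary screening values without error estimates. The marker varies much from line to line, for technical or biological reasons.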 This is part of the screen, not chosen by result. An entry leaves out what has no value listed here.

Drugs:
FH535 (5 µM): Cc1cc([N+](=O)[O-])ccc1NS(=O)(=O)c1cc(Cl)ccc1Cl
dorsomorphin (2 µM): c1cc(-c2cnn3cc(-c4ccc(OCCN5CCCCC5)cc4)cnc23)ccn1
XAV939 (10 µM): Oc1nc(-c2ccc(C(F)(F)F)cc2)nc2c1CSCC2
perifosine (2 µM): CCCCCCCCCCCCCCCCCCOP(=O)([O-])OC1CC[N+](C)(C)CC1
cisplatin (8 µM): N.N.[Cl][Pt][Cl]
L-779450 (1 µM): Oc1cc(-c2nc(-c3ccccc3)[nH]c2-c2ccncc2)ccc1Cl
OSU-03012 (5 µM): NCC(=O)Nc1ccc(-n2nc(C(F)(F)F)cc2-c2ccc3c(ccc4ccccc43)c2)cc1
GSK650394 (0.8 µM): O=C(O)c1ccc(-c2c[nH]c3ncc(-c4ccccc4)cc23)cc1C1CCCC1
KU-0063794 (0.1 µM): COc1ccc(-c2ccc3c(N4CCOCC4)nc(N4C[C@@H](C)O[C@@H](C)C4)nc3n2)cc1CO
enzastaurin (4 µM): Cn1cc(C2=C(c3cn(C4CCN(Cc5ccccn5)CC4)c4ccccc34)C(=O)NC2=O)c2ccccc21
NVP-TAE684 (0.4 µM): COc1cc(N2CCC(N3CCN(C)CC3)CC2)ccc1Nc1ncc(Cl)c(Nc2ccccc2S(=O)(=O)C(C)C)n1
A-769662 (10 µM): N#Cc1c(O)c2c(-c3ccc(-c4ccccc4O)cc3)csc2[nH]c1=O

Results for KU-0063794 + NVP-TAE684 are LOX IMVI: 34.9; LB2518-MEL: 158; A101D: 62.2; C32: 267. cisplatin + NVP-TAE684 gave LOX IMVI: 73.6; LB2518-MEL: 159; A101D: 127; C32: 153. perifosine + enzastaurin gave LOX IMVI: 113; LB2518-MEL: 73.0; A101D: 211; C32: 154. With OSU-03012 + cisplatin the screen read LOX IMVI: 113; A101D: 304; C32: 59.0. L-779450 + enzastaurin gave LOX IMVI: 106; LB2518-MEL: 160; A101D: 252; C32: 98.5.

With perifosine + dorsomorphin the screen read LOX IMVI: 87.8; LB2518-MEL: 75.1; A101D: 129; C32: 217. For XAV939 + NVP-TAE684 the values were LOX IMVI: 193; LB2518-MEL: 49.8; A101D: 67.6; C32: 184. With A-769662 + perifosine the screen read LOX IMVI: 169; LB2518-MEL: 58.0; A101D: 149; C32: 155. Results for NVP-TAE684 + enzastaurin are LOX IMVI: 181; LB2518-MEL: 280; A101D: 105; C32: 121. Results for dorsomorphin + A-769662 are LOX IMVI: 62.6; LB2518-MEL: 78.4; A101D: 91.5; C32: 257.

With perifosine + cisplatin the screen read LOX IMVI: 159; LB2518-MEL: 82.8; A101D: 89.7; C32: 32.8. Results for OSU-03012 + L-779450 are LOX IMVI: 70.7; LB2518-MEL: 176; A101D: 369; C32: 136. With enzastaurin + GSK650394 the screen read LOX IMVI: 64.8; LB2518-MEL: 23.0; A101D: 150; C32: 37.0. Results for FH535 + KU-0063794 are LOX IMVI: 13.7; LB2518-MEL: 81.7; A101D: 125; C32: 109. With dorsomorphin + KU-0063794 the screen read LOX IMVI: 63.7; LB2518-MEL: 225; A101D: 53.0; C32: 135.

For L-779450 + GSK650394 the values were LOX IMVI: 146; LB2518-MEL: 74.8; A101D: 140; C32: 445. Results for perifosine + KU-0063794 are LOX IMVI: 227; LB2518-MEL: 55.0; A101D: 338; C32: 154. With enzastaurin + FH535 the screen read LOX IMVI: 84.4; A101D: 132; C32: 77.9. With XAV939 + GSK650394 the screen read LOX IMVI: 91.0; LB2518-MEL: 66.1; A101D: 150; C32: 89.0. Results for KU-0063794 + cisplatin are LOX IMVI: 156; LB2518-MEL: 303; A101D: 132; C32: 94.7.

With cisplatin + FH535 the screen read LOX IMVI: 38.2; LB2518-MEL: 143; A101D: 140; C32: 92.5. NVP-TAE684 + L-779450 gave LOX IMVI: 35.8; LB2518-MEL: 94.2; A101D: 256; C32: 589. dorsomorphin + cisplatin gave LOX IMVI: 216; LB2518-MEL: 132; A101D: 195; C32: 131. Results for KU-0063794 + A-769662 are LOX IMVI: 136; LB2518-MEL: 68.1; A101D: 94.8; C32: 172. For dorsomorphin + OSU-03012 the values were LOX IMVI: 104; LB2518-MEL: 95.4; A101D: 142; C32: 339.

For GSK650394 + cisplatin the values were LOX IMVI: 35.0; A101D: 61.7; C32: 72.8. With A-769662 + cisplatin the screen read LOX IMVI: 36.3; LB2518-MEL: 57.5; A101D: 44.3; C32: 72.9. For FH535 + XAV939 the values were LOX IMVI: 131; LB2518-MEL: 72.0; A101D: 132; C32: 290. For KU-0063794 + XAV939 the values were LOX IMVI: 198; LB2518-MEL: 163; A101D: 91.4; C32: 78.4. For perifosine + L-779450 the values were LOX IMVI: 213; LB2518-MEL: 42.9; A101D: 55.0; C32: 94.2.

OSU-03012 + NVP-TAE684 gave LOX IMVI: 133; A101D: 154; C32: 107. perifosine + FH535 gave LOX IMVI: 105; LB2518-MEL: 57.8; A101D: 144; C32: 82.1. For L-779450 + FH535 the values were LOX IMVI: 114; LB2518-MEL: 54.1; A101D: 122; C32: 344. Results for XAV939 + A-769662 are LOX IMVI: 88.5; LB2518-MEL: 63.7; A101D: 169; C32: 186. With L-779450 + KU-0063794 the screen read LOX IMVI: 21.0; LB2518-MEL: 101; A101D: 118; C32: 102.

Results for enzastaurin + KU-0063794 are LOX IMVI: 99.7; LB2518-MEL: 266; A101D: 118; C32: 176.

Some entries from above, unchanged:

* XAV939 + A-769662 | LOX IMVI: 88.5; LB2518-MEL: 63.7; A101D: 169; C32: 186
* FH535 + XAV939 | LOX IMVI: 131; LB2518-MEL: 72.0; A101D: 132; C32: 290